{
  "source": "patent US20090226427A1",
  "about": "“NOVEL PHARMACEUTICAL COMPOSITIONS FOR MODULATING ANGIOGENESIS” (priority 1999, published 2009)",
  "key": {"HUVECs": {"system": "HUVECs", "test": "angiogenesis assay on Matrigel, HUVECs", "format": "cell-based, human", "conditions": "atorvastatin", "protocol": "(§1) Tube formation was observed using an inverted phase-contrast microscope (Zeiss Axiovert 25), and images were captured with a videographic system (Pixera Pro). The tube formation index was determined by measuring the length of tubes in random fields from each well using the Image J program. Statistical analyses were made using the Student t test or one-way ANOVA where appropriate.\nTransfection and peptide loading was performed by reversible permeabilization: HUVECs were transfected with the hsp90 cDNA (a gift from Dr W. C. Sessa, Yale University, New Haven, Conn.) using Lipofectamine (Invitrogen) according to the manufacturer's protocol; an irrelevant plasmid encoding β-galactosidase was used as a control to obtain identical amounts of transfected DNA in each condition. HUVECs were also reversibly permeabilized, as previously reported (Feron et al. J Biol. Chem. 1998; 273:30249-30254), to introduce synthetic peptides derived from the caveolin scaffolding domain (CSD)."}, "hsp90/eNOS interaction [1]": {"system": "hsp90/eNOS interaction", "test": "hsp90/eNOS co-immunoprecipitation, CMECs", "format": "cell-based, Mouse", "conditions": "geldanamycin 1 μg/mL, LY294002 10 μmol/L"}, "phospho-Ser1177-eNOS [2]": {"system": "phospho-Ser1177-eNOS", "test": "phospho-Ser1177 eNOS immunoblot, CMECs", "format": "cell-based, Mouse", "conditions": "LY294002 10 μmol/L, geldanamycin 1 μg/mL"}, "phospho-Ser1177-eNOS [3]": {"system": "phospho-Ser1177-eNOS", "test": "phospho-Ser1177-eNOS immunoblot, VEGF-exposed HUVEC", "format": "cell-based, human", "conditions": "LY294002 10 μM 1-h preincubation; geldanamycin 1 μg/ml; BAPTA-AM 20 μM"}, "phospho-Ser473-Akt [4]": {"system": "phospho-Ser473-Akt", "test": "phospho-Ser473-Akt immunoblot, VEGF-exposed HUVEC", "format": "cell-based, human", "conditions": "LY294002 10 μM 1-h preincubation; geldanamycin 1 μg/ml; BAPTA"}, "Akt": {"system": "Akt", "test": "Akt immunoprecipitation kinase assay (phospho-GSK-3), VEGF-exposed EC", "format": "cell-based, human", "conditions": "phosphorylation of purified GSK-3 by Akt immunoprecipitates"}, "[Ca^2+]i": {"system": "[Ca^2+]i", "test": "Fura-2 measurement of [Ca2+]i in VEGF-exposed EC", "format": "cell-based, human", "conditions": "pretreatment", "protocol": "Alternating wavelength excitation of 340 and 380 nm was provided by a motorized filter wheel. The image pairs monitored by the Ionoptix Myocam camera were processed by the IonWizard software (Ionoptix, Milton, Mass.) and are presented as the fluorescence ratio (340/380 nm), a direct index to the [Ca^2+]i. In some experiments, Fura-2-loaded cells were preincubated with the intracellular calcium chelator BAPTA/AM (20 μM)."}, "phospho-Akt": {"system": "phospho-Akt", "test": "phospho-Akt immunoblot, insulin-stimulated cardiac myocytes", "format": "cell-based, mouse", "conditions": "insulin 5 min; geldanamycin 1 μg/ml; LY294002 50 μM"}, "phospho-eNOS": {"system": "phospho-eNOS", "test": "phospho-eNOS immunoblot, insulin-stimulated cardiac myocytes", "format": "cell-based, mouse", "conditions": "insulin 5 min; geldanamycin 1 μg/ml; LY294002 50 μM"}, "phospho-GSK-3": {"system": "phospho-GSK-3", "test": "phospho-GSK-3 immunoblot, insulin-stimulated cardiac myocytes", "format": "cell-based, mouse", "conditions": "insulin 5 min; geldanamycin 1 μg/ml; LY294002 50 μM"}, "[5]": {"system": "phospho-Akt/eNOS interaction", "test": "eNOS/phospho-Akt co-immunoprecipitation, statin-exposed HUVECs", "conditions": "co-IP"}, "CMECs": {"system": "CMECs", "test": "angiogenesis assay on Matrigel, CMECs", "format": "cell-based, Mouse", "conditions": "L-NAME 5 mmol/L coincubation, geldanamycin 1 μg/mL 30-minute preincubation", "protocol": "as §1"}, "hsp90/eNOS interaction [6]": {"system": "hsp90/eNOS interaction", "test": "hsp90/eNOS co-immunoprecipitation, VEGF-exposed HUVEC", "format": "cell-based, human"}, "Akt/eNOS interaction": {"system": "Akt/eNOS interaction", "test": "Akt/eNOS co-immunoprecipitation, VEGF-exposed HUVEC", "format": "cell-based, human"}, "eNOS": {"system": "eNOS", "test": "nitrite (NO2-) detection, VEGF-stimulated EC", "format": "cell-based, human", "conditions": "nitrite production normalized per min"}, "phospho-Ser473-Akt [7]": {"system": "phospho-Ser473-Akt", "test": "phospho-Ser473-Akt immunoblot, statin-exposed HUVECs", "conditions": "simultaneous preincubation with geldanamycin and okadaic acid"}, "[8]": {"conditions": "5 min VEGF, geldanamycin pretreatment"}, "[9]": {"conditions": "eNOS antibodies, geldanamycin 1 μg/ml 30 min, BAPTA"}},
  "note": "At least one compound was matched to its structure with a doubt left.",
  "data": [
    {"smiles": "O=c1cc(N2CCOCC2)oc2c(-c3ccccc3)cccc12", "note": "[LY294002]", "values": [
      {"measurement": "effect on statin-induced tube formation", "setting": "HUVECs", "result": "prevented HUVEC reorganization"},
      {"measurement": "effect on statin-induced recruitment of hsp90 to eNOS", "setting": "hsp90/eNOS interaction [1]", "result": "did not prevent"},
      {"measurement": "effect on statin-induced phosphorylation of eNOS", "setting": "phospho-Ser1177-eNOS [2]", "result": "completely blocked"},
      {"measurement": "effect on VEGF-induced eNOS phosphorylation", "setting": "phospho-Ser1177-eNOS [3]", "result": "completely prevented"},
      {"measurement": "effect on VEGF-induced Akt phosphorylation", "setting": "phospho-Ser473-Akt [4]", "result": "completely prevented"},
      {"measurement": "effect on 30-min VEGF-stimulated Akt activity", "setting": "Akt", "result": "abrogated the Akt activation"},
      {"measurement": "basal level of [Ca^2+]i and profile of the VEGF-induced calcium transient", "setting": "[Ca^2+]i", "result": "not altered"},
      {"measurement": "effect on insulin-induced Akt activation", "setting": "phospho-Akt", "result": "blocked"},
      {"measurement": "effect on insulin-induced eNOS phosphorylation", "setting": "phospho-eNOS", "result": "blocked"},
      {"measurement": "effect on insulin-induced GSK-3 phosphorylation", "setting": "phospho-GSK-3", "result": "blocked"},
      {"measurement": "effect on phospho-Akt/eNOS interaction upon statin", "setting": "[5]", "result": "repressed"}
    ]},
    {"smiles": "COC1=C2C[C@@H](C)C[C@H](OC)[C@H](O)[C@@H](C)/C=C(\\C)[C@H](OC(N)=O)[C@@H](OC)/C=C\\C=C(/C)C(=O)NC(=CC1=O)C2=O", "note": "[geldanamycin]", "values": [
      {"measurement": "effect on atorvastatin-induced tube formation", "setting": "CMECs", "result": "nearly complete blockade"},
      {"measurement": "effect on statin-induced tube formation", "setting": "HUVECs", "result": "suppressed the ability of statins to promote eNOS phosphorylation and tube formation"},
      {"measurement": "effect on statin-induced recruitment of hsp90 to eNOS", "setting": "hsp90/eNOS interaction [1]", "result": "nearly complete blockade"},
      {"measurement": "effect on statin-induced phosphorylation of eNOS", "setting": "phospho-Ser1177-eNOS [2]", "result": "blocked the phosphorylation of eNOS"},
      {"measurement": "eNOS immunoprecipitated by hsp90 antibodies", "setting": "hsp90/eNOS interaction [6]; [8]", "result": "did not lead to any detectable amount of eNOS"},
      {"measurement": "effect on VEGF-induced hsp90/eNOS co-immunoprecipitation", "setting": "hsp90/eNOS interaction [6]; [9]", "result": "no longer detectable"},
      {"measurement": "effect on VEGF-induced eNOS phosphorylation", "setting": "phospho-Ser1177-eNOS [3]", "result": "no phospho-eNOS signal was detectable"},
      {"measurement": "effect on VEGF-induced Akt phosphorylation", "setting": "phospho-Ser473-Akt [4]", "result": "detectable as soon as 30 s"},
      {"measurement": "eNOS immunoprecipitated by Akt antibodies", "setting": "Akt/eNOS interaction; [8]", "result": "did not lead to any detectable amount of eNOS"},
      {"measurement": "effect on VEGF-induced Akt/eNOS co-immunoprecipitation", "setting": "Akt/eNOS interaction; [9]", "result": "neither was Akt"},
      {"measurement": "effect on 30-min VEGF-stimulated Akt activity", "setting": "Akt", "result": "not altered"},
      {"measurement": "basal level of [Ca^2+]i and profile of the VEGF-induced calcium transient", "setting": "[Ca^2+]i", "result": "not altered"},
      {"measurement": "effect on late VEGF-induced eNOS activation (5-30 min)", "setting": "eNOS", "result": "significantly inhibited"},
      {"measurement": "effect on insulin-induced Akt activation", "setting": "phospho-Akt", "result": "did not alter"},
      {"measurement": "effect on insulin-induced eNOS phosphorylation", "setting": "phospho-eNOS", "result": "completely abolished"},
      {"measurement": "effect on insulin-induced GSK-3 phosphorylation", "setting": "phospho-GSK-3", "result": "not altered"},
      {"measurement": "extent of Akt phosphorylation", "setting": "phospho-Ser473-Akt [7]", "result": "did not change"},
      {"measurement": "effect on phospho-Akt/eNOS interaction upon statin", "setting": "[5]", "result": "repressed"}
    ]}
  ]
}
